Measured values published in PMC11791027.
Substitutions are numbered along the chain they refer to. These are yes or no findings as the source states them, for the method shown. Binding seen in cells or lysates may run through a third protein. A result given as binding can be weak or reduced; the word gives no strength. Sequences can lack the tags named with a protein.

Assays:
Assay in all cases: co-IP; HEK293T cells cotransfected with Halo-tagged Tulp3 and Myc-tagged hPKD2 (WT, W414G or L517R), cultured 48 h; lysis and washing buffer 20 mM Tris-HCl pH 7.4, 200 mM NaCl, 2.5 mM MgCl2, 0.5% Nonidet P-40; 16 h at 4°C; legends: precipitated with anti-Myc antibody-conjugated beads and blotted with anti-Halo; methods: anti-Halo-tag mAb with protein A/G agarose beads
[1] = target: T1, Myc-tagged hPKD2 L517R mutant (polycystin-2 L517R) (human) (UniProt Q13563)
T1 sequence: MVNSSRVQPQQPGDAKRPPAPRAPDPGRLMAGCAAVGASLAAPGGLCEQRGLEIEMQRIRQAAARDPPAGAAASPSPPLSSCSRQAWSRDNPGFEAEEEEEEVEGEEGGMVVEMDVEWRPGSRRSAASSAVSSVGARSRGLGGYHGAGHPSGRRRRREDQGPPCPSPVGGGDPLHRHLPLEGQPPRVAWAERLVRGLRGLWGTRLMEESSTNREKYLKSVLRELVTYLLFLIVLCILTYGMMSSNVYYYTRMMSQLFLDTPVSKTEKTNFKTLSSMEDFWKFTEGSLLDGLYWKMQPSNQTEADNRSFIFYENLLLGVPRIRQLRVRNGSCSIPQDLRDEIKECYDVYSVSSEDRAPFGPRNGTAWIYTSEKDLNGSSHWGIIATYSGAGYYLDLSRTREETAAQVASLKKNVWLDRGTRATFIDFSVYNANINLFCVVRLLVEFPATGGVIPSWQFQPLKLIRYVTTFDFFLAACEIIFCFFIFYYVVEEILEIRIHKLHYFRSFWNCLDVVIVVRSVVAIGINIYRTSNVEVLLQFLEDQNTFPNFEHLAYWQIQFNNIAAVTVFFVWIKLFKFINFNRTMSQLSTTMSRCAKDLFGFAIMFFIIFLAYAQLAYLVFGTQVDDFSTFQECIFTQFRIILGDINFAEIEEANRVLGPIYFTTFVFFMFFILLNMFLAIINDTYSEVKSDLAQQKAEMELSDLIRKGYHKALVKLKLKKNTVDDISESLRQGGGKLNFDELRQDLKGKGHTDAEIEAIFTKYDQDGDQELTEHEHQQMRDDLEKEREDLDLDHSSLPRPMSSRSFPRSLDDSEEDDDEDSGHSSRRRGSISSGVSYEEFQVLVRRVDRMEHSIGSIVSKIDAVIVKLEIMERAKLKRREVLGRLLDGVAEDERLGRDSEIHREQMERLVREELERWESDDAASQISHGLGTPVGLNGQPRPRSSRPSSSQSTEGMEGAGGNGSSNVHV

[2] = target: T2, Myc-tagged hPKD2 W414G mutant (polycystin-2 W414G) (human) (UniProt Q13563)
T2 sequence: T1 sequence with W414G, R517L

[3] = target: T3, Myc-tagged hPKD2 WT (polycystin-2) (human) (UniProt Q13563)
T3 sequence: T1 sequence with R517L

Measured: binding

Halo-tagged Tulp3
binds: [1] | [2] | [3]
